Source: PubChem BioAssay AID540256 (National Center for Advancing Translational Sciences (NCATS), 2011)
Out of some 300,000 compounds screened, about 3,700 (1.2%) were called active. Inconclusive means that the source gave no clear call. Such entries were picked first, then a sample of the others. Calls come from the whole dose curve; tested in HEK293 cells. Potencies beside an inconclusive call are fits to weak or partial responses and may not hold up.

test: qHTS for Inhibitors of binding or entry into cells for Lassa Virus; conditions: Lassa virus pseudotype entry inhibition, cell reporter; series mostly up to 37.9 µM; note: nearly all actives have a fitted effect of over 50% in size
Potency is the fitted concentration of half-maximal effect.

Structure (SMILES)	Potency
O=C1CCC(C(=O)N2CCC(CCO)CC2)CN1Cc1ccc(Cl)cc1 (stereo unspecified)	inconclusive: 0.631 µM [inhibitor, partial curve, poor fit]
COc1ccccc1/C=C/C=N/N1CCN(Cc2ccc(Cl)cc2)CC1	inconclusive: 0.092 µM [activator, full curve, poor fit]
Cc1cc(C(=O)Cn2nnc3ccccc3c2=O)c(C)n1-c1ccccc1F	active: 1.12 µM
CCOc1cc(CNC2CCCC2)cc(Cl)c1OCc1ccc(F)cc1	inconclusive: 29.1 µM [inhibitor, single point]
CCOc1ccc(N(C)S(=O)(=O)c2c(C(=O)N3CCC(C)CC3)c(C)n(C)c2C)cc1	inconclusive: 8.91 µM [inhibitor, partial curve, poor fit]
C/C=C/c1ccc(Oc2nnnn2-c2ccc(C(=O)O)cc2)c(OC)c1	inconclusive: 4.61 µM [inhibitor, partial curve, poor fit]
COc1ccc(Nc2ncnc3sccc23)c(OC)c1	inactive
CN(CC(=O)Nc1c(Cl)cccc1Cl)C(=O)c1ccccc1SCC(=O)N1CCCC1	inactive
Cc1cccc(-n2ncc(C(=O)N3CCN(Cc4ccccc4)CC3)c2C2CCN(C(=O)OC(C)(C)C)CC2)c1	inconclusive: 1.58 µM [inhibitor, full curve, poor fit]
Cc1c(N=Cc2c(O)n(CCc3ccc(F)cc3)c(=O)[nH]c2=O)c(=O)n(-c2ccccc2)n1C	inconclusive: 20.6 µM [inhibitor, single point]
Cc1noc(C(=O)Nc2ccc(F)c(Cl)c2)c1Cl	inactive
Cc1cccc(NC(=S)NNC(=O)c2csc(C)c2)c1	inconclusive: 4.47 µM [activator, full curve, poor fit]
Cc1occc1C(=O)N/N=C/C(Br)=C\c1ccccc1	active: 12.6 µM
CCc1c(C)[nH]n(-c2nc(-c3ccccc3)cs2)c1=O	inactive
CCOC(=O)C1(CCCc2ccccc2)CCN(C(=O)c2ocnc2C)CC1	active: 2.82 µM
CCOc1ccccc1NC(=O)Cn1nnc(-c2ccc(OCC)c(OCC)c2)n1	inconclusive: 23.1 µM [inhibitor, single point]
O=C(CNC(=O)c1ccc(Cl)cc1)c1ccccc1	inconclusive: 12.6 µM [inhibitor, single point]
COc1cccc(NC(=O)CN(c2cccc(F)c2)S(C)(=O)=O)c1	inactive
C/C(=N\O)c1ccc2[nH]ccc2c1	inactive
CSc1nc2ccc(NC(=O)CSc3nnc(N)s3)cc2s1	inactive
COc1ccc(C(=O)N2CCC(c3nc4ccccc4s3)CC2)cc1Cl	inconclusive: 5.01 µM [activator, partial curve]
CCN(CC)S(=O)(=O)c1ccc(NC(=O)CSc2nc3nc(C)cc(C)c3c(=O)[nH]2)cc1	inactive
Cc1ccc2nc(N3CCN(S(=O)(=O)c4ccc(C)c(Cl)c4)CC3)c(C#N)cc2c1	inconclusive: 29.1 µM [inhibitor, single point]
Cc1cc(=O)c2cc(C(=O)Nc3ccc(C)c(C)c3)ccc2[nH]1	inactive

Quoted from the listing:
Cc1occc1C(=O)N/N=C/C(Br)=C\c1ccccc1 | Potency: active: 12.6 µM
COc1ccccc1/C=C/C=N/N1CCN(Cc2ccc(Cl)cc2)CC1 | Potency: inconclusive: 0.092 µM [activator, full curve, poor fit]
COc1ccc(Nc2ncnc3sccc23)c(OC)c1 | Potency: inactive

More records follow:

Structure (SMILES)	Potency
Cc1cc(C)n2cc(-c3ccc(Cl)cc3)c(C(=O)O)c2n1	inactive
CN(C)c1cc(N/N=C/c2ccccc2C(F)(F)F)nc(N(C)C)n1	inconclusive: 11.2 µM [inhibitor, single point]
COc1cc(/C=N/Nc2nncn2/N=C/c2ccc(O)c(OC)c2)ccc1O	inactive
CC(C)(CO)NC(=O)Nc1ccc(Cl)c(Cl)c1	inconclusive: 11.2 µM [activator, single point]
O=C(Nc1ccc(Cl)cc1)c1csc(-c2ccccc2)n1	inactive
COC(=O)c1ccc2c(c1)SC1=C(CCCC1=O)N2	inactive
Cc1cc(Br)ccc1NC(=O)C1CCCN(S(=O)(=O)c2cccc3nonc23)C1 (stereo unspecified)	inactive
Fc1ccc(CN(C2=NCCN2)c2c(Cl)cccc2Cl)cc1	inconclusive: 23.1 µM [inhibitor, partial curve]
N#CC1=C(N)SC(N)=C(C#N)C1c1c(Cl)cccc1Cl	inactive
Nc1nnnn1/N=C/C=C/c1ccccc1	inactive
Cc1cc(-c2ccccc2)n2nc(-c3ccc(Cl)cc3)cc2n1	inactive
CN(CC(=O)Nc1cccc(F)c1)C(=O)CCSc1ccc(F)cc1	inconclusive: 3.98 µM [inhibitor, partial curve, poor fit]
COc1cc(/C=N/NC(=O)COc2ccc(Cl)cc2)ccc1OS(=O)(=O)c1ccc(C)cc1	inconclusive: 7.3 µM [inhibitor, partial curve, poor fit]
CCn1c(CNC(=O)C2CCCCC2)cc2ccccc21	inactive
COc1ccc(C2C(C#N)=C(N)OC3=C2C(=O)CC(C)(C)C3)cc1OC (stereo unspecified)	inconclusive: 10 µM [activator, partial curve, poor fit]
Cc1cccc(-n2nnc(C(=O)NC3CCCc4ccccc43)c2N)c1 (stereo unspecified)	inconclusive: 20.6 µM [inhibitor, single point]
Cc1cc(C)c(S(=O)(=O)Nc2cnc3ccccc3c2)c(C)c1	inconclusive: 35.5 µM [inhibitor, single point]
CC(C)c1ccc(/C=N/NC(=O)CC(=O)NCc2ccccc2)cc1	inconclusive: 18.3 µM [inhibitor, partial curve, poor fit]
Cc1ccc2oc(=O)cc(CN3CCCCC3)c2c1	inconclusive: 6.31 µM [activator, single point]
C#CCOCCOCCOCCNc1nc(N2CCN(C(=O)[C@H]([C@@H](C)CC)n3cc(CCCN=C(N)N)nn3)CC2)nc(N2CCN(C(=O)[C@H]([C@@H](C)CC)n3cc(CCCN=C(N)N)nn3)CC2)n1	inactive
CCOC(=O)c1ccc(NC(=O)c2cccc(S(=O)(=O)N3CCOCC3)c2)cc1	inconclusive: 15.8 µM [inhibitor, single point]
CCOC(=O)c1c(S(=O)(=O)N2CCCC(C(=O)NCc3ccccc3Cl)C2)c(C)n(C)c1C (stereo unspecified)	inactive
Cc1ccc(Cn2nc(C)c(NC(=O)C3CC3)c2C)cc1	inactive
CC(=O)Nc1cc2c(cc1C(=O)c1ccc(C)cc1)OCCO2	inactive

Structure (SMILES)	Potency
CCOC(=O)C1=C(c2ccccc2)N=c2s/c(=C\c3ccc(O)cc3)c(=O)n2C1c1cccs1 (stereo unspecified)	active: 16.4 µM
O=C(Nc1nccs1)c1csc2c1CCCC2	inconclusive: 11.2 µM [activator, partial curve]
Cc1cccc2cc(CN(Cc3ccco3)C(=O)c3ccncc3)c(=O)[nH]c12	inactive
COc1ccc(/C=C/C2=CCN(Cc3ccc(OC)cc3)CC2)cc1	inactive
O=C(CSCc1ccc(Br)cc1)Nc1ccc(S(=O)(=O)N2CCCCCC2)cc1	inconclusive: 29.1 µM [inhibitor, single point]
COc1cc(Cl)c(NC(=O)c2cc(S(=O)(=O)N3CCCCC3)c[nH]2)c(OC)c1	inactive
Cc1ccc(NC(=O)C(C)OC(=O)c2ccc(NS(=O)(=O)c3ccc(F)c(F)c3)cc2)cc1 (stereo unspecified)	inconclusive: 1.12 µM [inhibitor, full curve, poor fit]
Cc1ccnc(NC(=O)c2ccc([N+](=O)[O-])o2)c1	inconclusive: 20.6 µM [inhibitor, single point]
CN(c1ccccc1)S(=O)(=O)c1cccc(NC(=O)CCNC(=O)c2ccc(Cl)cc2)c1	inconclusive: 35.5 µM [inhibitor, single point]
CC(CN1C(C)CCCC1C)OC(=O)c1ccc(F)cc1 (stereo unspecified)	inconclusive: 35.5 µM [inhibitor, single point]
COc1ccc(NC(=O)CSc2oc(-c3ccc(F)cc3)nc2S(=O)(=O)c2ccc(C)cc2)c(OC)c1	inactive
Cc1ccc(CN(Cc2cc3cc4c(cc3[nH]c2=O)OCCO4)Cc2nnnn2Cc2ccco2)cc1	inconclusive: 20.6 µM [inhibitor, partial curve, poor fit]
CSc1ccccc1NC(=O)c1cc2c(=O)n3ccccc3nc2s1	inconclusive: 0.1 µM [inhibitor, full curve, poor fit]
COc1cc(/C=N/NC(=O)c2cccnc2)ccc1OC(=O)c1cc(OC)c(OC)c(OC)c1	inconclusive: 3.98 µM [inhibitor, partial curve, poor fit]
COc1ccccc1NC(=O)Nc1ccncc1	inactive
CC1=C(C(=O)Nc2ccccc2)C(c2ccc(C)cc2)N=C(Nc2nc3ccccc3o2)N1 (stereo unspecified)	inconclusive: 20.6 µM [inhibitor, partial curve, poor fit]
CC1C=CCC2C(=O)N(c3cccc(C(=O)Nc4ccc(F)cc4)c3)C(=O)C12 (stereo unspecified)	inconclusive: 0.282 µM [activator, partial curve, poor fit]
Cc1ccn2c(c1)nc(=S)n2C(=O)c1ccco1	inconclusive: 16.4 µM [activator, partial curve]
Clc1ccc(Cn2ccnc2)cn1	inconclusive: 3.16 µM [inhibitor, single point]
Cc1ccc(-c2noc(CN3CCC(C(N)=O)CC3)n2)cc1	inconclusive: 1.26 µM [inhibitor, single point]
CN1C(CC(=O)Nc2ccc(Br)cc2)c2ccccc2CC1(C)C (stereo unspecified)	inconclusive: 10 µM [inhibitor, partial curve, poor fit]
Cc1ccc(S(=O)(=O)NCCC(c2ccccc2)c2ccco2)cc1 (stereo unspecified)	inconclusive: 14.6 µM [inhibitor, single point]
CC1CCc2c(sc3nnn(CCCCOc4ccc(Cl)cc4)c(=O)c23)C1 (stereo unspecified)	inconclusive: 6.31 µM [activator, partial curve]
